## Results of single-concentration screens

Sequences of proteins named here, by UniProt entry; tags and fusion partners are left off. Residues count along the entry.
UniProt A4I591, 1-473: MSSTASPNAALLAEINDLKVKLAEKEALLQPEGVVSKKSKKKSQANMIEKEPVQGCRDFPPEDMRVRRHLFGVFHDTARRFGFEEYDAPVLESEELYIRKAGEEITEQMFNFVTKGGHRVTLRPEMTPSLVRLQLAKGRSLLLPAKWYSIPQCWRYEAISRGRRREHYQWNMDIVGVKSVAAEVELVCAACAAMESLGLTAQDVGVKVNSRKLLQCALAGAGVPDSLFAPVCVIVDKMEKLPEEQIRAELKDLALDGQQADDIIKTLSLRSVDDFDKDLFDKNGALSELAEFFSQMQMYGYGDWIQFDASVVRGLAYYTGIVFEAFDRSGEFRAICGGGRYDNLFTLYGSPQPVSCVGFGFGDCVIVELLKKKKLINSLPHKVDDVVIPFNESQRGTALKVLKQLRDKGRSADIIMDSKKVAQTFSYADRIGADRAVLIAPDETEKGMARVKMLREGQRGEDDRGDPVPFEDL
UniProt P9WPC5, whole entry: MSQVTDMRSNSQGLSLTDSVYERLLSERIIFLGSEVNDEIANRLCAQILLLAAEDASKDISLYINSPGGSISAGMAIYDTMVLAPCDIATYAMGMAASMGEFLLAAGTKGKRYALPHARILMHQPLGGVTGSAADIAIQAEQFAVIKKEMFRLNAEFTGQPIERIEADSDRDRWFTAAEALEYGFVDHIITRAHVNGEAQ
UniProt P9WPC3, whole entry partner: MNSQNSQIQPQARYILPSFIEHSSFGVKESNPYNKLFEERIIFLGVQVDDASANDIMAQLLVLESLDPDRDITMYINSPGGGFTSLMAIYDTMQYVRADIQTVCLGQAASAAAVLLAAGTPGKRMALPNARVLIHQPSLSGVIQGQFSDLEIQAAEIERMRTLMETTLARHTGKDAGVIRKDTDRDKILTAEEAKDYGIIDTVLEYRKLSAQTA
UniProt Q4DA54, 1-478: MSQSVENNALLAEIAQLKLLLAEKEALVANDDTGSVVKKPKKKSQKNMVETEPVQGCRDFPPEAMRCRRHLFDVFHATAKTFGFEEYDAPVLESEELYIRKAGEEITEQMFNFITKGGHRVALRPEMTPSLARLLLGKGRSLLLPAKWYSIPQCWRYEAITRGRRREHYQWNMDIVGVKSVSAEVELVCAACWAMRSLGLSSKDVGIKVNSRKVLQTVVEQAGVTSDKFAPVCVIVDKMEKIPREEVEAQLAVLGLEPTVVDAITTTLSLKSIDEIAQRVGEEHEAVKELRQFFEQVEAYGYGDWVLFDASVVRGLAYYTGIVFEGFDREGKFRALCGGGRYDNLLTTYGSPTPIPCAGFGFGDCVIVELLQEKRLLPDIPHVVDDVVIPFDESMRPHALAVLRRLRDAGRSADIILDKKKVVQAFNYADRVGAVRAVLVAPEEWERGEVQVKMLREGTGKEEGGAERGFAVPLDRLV

The values are deposited in ChEMBL (CHEMBL3988442, “University of Dundee, Small-Polar-MMV Screening Library” (2021)).

Values are the deposited “Percent Effect”, in %. The record does not define 0% and 100%; most values in the screen are far below 50% and negative numbers occur (in some assays of this library far below -100). Compounds were drawn at random from those tested, without regard to their results. A dash means the value is not listed here; it may have been measured.

Toxoplasma: 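Assay of Toxoplasma gondii numbers, read through their beta-galactosidase reporter with a colour substrate. Compounds at 10 µM. The record gives no direction; the compounds picked for IC50 retests had high values, so higher reads as fewer parasites. Size under these conditions: about 67,000 compounds, about 260 of them at 50% or above in at least one test.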
T. brucei: 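Whole-parasite assay of Trypanosoma brucei over 72 hours; the read-out is not stated. Compounds at 30 µM. The record gives no direction; compounds that gave an IC50 in retests scored well above the rest, so higher reads as stronger inhibition. Values scatter widely below zero; nearly all retest evidence comes from the higher of the two concentrations used. About 64,000 compounds were tested under these conditions; 1.5% (about 940) showed 50% or more at least once.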
LiHisRS: 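Histidine-tRNA ligase, Leishmania infantum (UniProt A4I591). Enzyme assay of histidyl-tRNA synthetase; the read-out is not stated. Tested at 30 µM. The record gives no direction; compounds that gave an IC50 in retests scored well above the rest, so higher reads as stronger inhibition. The assay is labelled LdHisRS but filed under L. infantum. Size under these conditions: about 69,000 compounds, about 410 of them at 50% or above in at least one test.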
ClpP1P2: 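Protease assay of ClpP1P2, read by the AMC dye that it sets free. Target: ClpP1P2, Mycobacterium tuberculosis (UniProt P9WPC5 and UniProt P9WPC3). Tested at 50 µM. Higher reads as stronger inhibition, judged from the few compounds that gave an IC50. Most other retested compounds had strongly negative values. Size under these conditions: about 69,000 compounds, about 10 of them at 50% or above in at least one test.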
TcHisRS: 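Histidine-tRNA ligase, Trypanosoma cruzi CL Brener (UniProt Q4DA54). Enzyme assay of histidyl-tRNA synthetase; the read-out is not stated. Tested at 30 µM. Direction is inferred from retests: higher values go with stronger inhibition. About 69,000 compounds were tested under these conditions; 0.045% (about 31) showed 50% or more at least once.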

[H][C@@]12C[C@H](c3nnc(C)o3)CN(S(=O)(=O)C3CC3)[C@]1([H])CCO2 gave Toxoplasma: -0.7979%; T. brucei: -54.9%. CN(CCc1ccccc1)Cc1cnc(C2(C)CCCCO2)nc1 (stereo not given) gave Toxoplasma: 15.76%; T. brucei: -16.82%; LiHisRS: 14.08%; ClpP1P2: -2.35%; TcHisRS: 6.818%. Cn1ccnc1-c1ccc(NCc2cn3c(n2)SCC3)nn1 read Toxoplasma: 33.57%; T. brucei: -25.45%; LiHisRS: 19.54%; ClpP1P2: 3.684%; TcHisRS: 9.278%. Result for CCOc1ccccc1-c1noc(CN2CCCC(O)C2)n1 (stereo not given) was Toxoplasma: 2.658%; T. brucei: -5.672%; LiHisRS: 5.333%; ClpP1P2: 8.66%; TcHisRS: -4.151%. Result for O=C(O)CCc1cc2n(n1)CCCN(C(=O)c1ccc(Cl)s1)C2 was Toxoplasma: -35.69%; T. brucei: -41.23%; LiHisRS: 11.11%; ClpP1P2: 3.888%; TcHisRS: 7.879%. For Cc1nnc(NCC(c2ccco2)N2CCCCC2)c(C#N)c1C (stereo not given) the result was Toxoplasma: 4.503%; T. brucei: 5.84%; LiHisRS: 32.88%; ClpP1P2: -3.934%; TcHisRS: 4.865%. For COc1ccnc(CNc2nc(C)nc3ccsc23)c1 the result was Toxoplasma: 8.442%; T. brucei: -51.15%; LiHisRS: 9.804%; ClpP1P2: -6.294%; TcHisRS: 9.877%.

CCCC1(C(=O)O)CCCN(C(=O)c2cc(Cl)ccc2F)C1 (stereo not given) read Toxoplasma: 2.482%; T. brucei: 1.194%; LiHisRS: 21.52%; ClpP1P2: -5.95%; TcHisRS: -3.017%. Result for CCc1cc(NCCc2cnccn2)n2nc(C)c(C)c2n1 was Toxoplasma: 7.52%; T. brucei: 15.62%; LiHisRS: 1.887%; ClpP1P2: -13.32%; TcHisRS: 2.5%. For Cc1nnnn1-c1cc(NCc2cc(C#N)ccc2F)ccc1F the result was Toxoplasma: 5.448%; T. brucei: -23.31%; LiHisRS: 17.07%; ClpP1P2: -5.687%; TcHisRS: 3.365%. Result for COC1CCCN(C(=O)c2sc(CC(C)C)nc2C)C1 (stereo not given) was Toxoplasma: 0.5299%; T. brucei: -3.13%; LiHisRS: 5.479%; ClpP1P2: -10.78%; TcHisRS: 1.053%. With Cn1cc(C2CCCN2Cc2csc(C3CCCC3)n2)cn1 (stereo not given) the screen gave Toxoplasma: 14.27%; LiHisRS: 6.78%; ClpP1P2: -23.52%; TcHisRS: 5.714%. Clc1cc(CN2CCCC2Cn2cncn2)c2ncccc2c1 (stereo not given) read Toxoplasma: 3.231%; T. brucei: 4.203%; LiHisRS: 12.31%; ClpP1P2: 7.146%; TcHisRS: 3.448%. For Cc1cc(C)n(C(=O)Cn2nc(C)c(I)c2C)n1 the result was Toxoplasma: -7.086%; T. brucei: -15.27%; LiHisRS: 10.31%; ClpP1P2: 2.088%; TcHisRS: -1.156%.

Cc1oncc1C(=O)NCc1cc(=O)n2c(n1)CN(C)CCC2.O=C(O)C(F)(F)F read Toxoplasma: -19.85%; T. brucei: -18.32%. CCc1nc(NC2CC(=O)N(CC3CCCCC3)C2)ncc1C (stereo not given) read Toxoplasma: -5.09%; T. brucei: 12.59%; LiHisRS: 12.05%; ClpP1P2: -18.49%; TcHisRS: 9.392%. COc1ccc(CN2C[C@@H](F)[C@@H](OCc3nc4ccccc4[nH]3)C2)cn1 read Toxoplasma: -4.14%; T. brucei: -8.905%; LiHisRS: 16.22%; ClpP1P2: -5.533%; TcHisRS: 6.468%. [H][C@]12CCN(C(=O)c3ccoc3)[C@@]1([H])CC[C@H](COCc1ccncc1)O2 read Toxoplasma: -1.353%; T. brucei: 43.1%. Result for O[C@@]1(CNCCCNc2cccnc2)CCCN2CCCC[C@@H]21 was LiHisRS: 2.5%; ClpP1P2: -21.01%; TcHisRS: 3.865%. CN(C)C(=O)N1CCc2c(COCC3CC3)cncc2C1 gave Toxoplasma: -5.269%; T. brucei: -19.37%; LiHisRS: 11.76%; ClpP1P2: -1.387%; TcHisRS: 3.941%. Result for Nc1cc(N2CCC(c3cc(Cc4ccccc4)n[nH]3)CC2)ccn1 was Toxoplasma: 67.3%; T. brucei: 99.46%; LiHisRS: 47.79%; ClpP1P2: -15.04%; TcHisRS: 13.39%.

Some entries from above, unchanged:

| compound | Toxoplasma | T. brucei | LiHisRS | ClpP1P2 | TcHisRS |
|---|---|---|---|---|---|
| `Cc1nnc(NCC(c2ccco2)N2CCCCC2)c(C#N)c1C` (stereo not given) | 4.503 | 5.84 | 32.88 | -3.934 | 4.865 |
| `Cc1oncc1C(=O)NCc1cc(=O)n2c(n1)CN(C)CCC2.O=C(O)C(F)(F)F` | -19.85 | -18.32 | - | - | - |